In test [1] the target is T1, ZK002 β chain (Deinagkistrodon acutus) (UniProt Q8JIV8).
T1 sequence: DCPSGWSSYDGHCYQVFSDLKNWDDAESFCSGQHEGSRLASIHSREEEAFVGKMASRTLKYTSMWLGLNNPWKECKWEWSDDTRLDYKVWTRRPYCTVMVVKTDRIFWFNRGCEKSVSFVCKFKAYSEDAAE
The test can be described thus: crystal structure; both purified.

In test [2] the target is T1, ZK002 β chain (Deinagkistrodon acutus). The test can be described thus: SDS-PAGE under reducing and non-reducing conditions + MALDI-TOF MS; purified ZK002; about 30 kDa non-reduced, about 15 kDa reduced; MALDI-TOF peaks at 30 kDa, 15 kDa (α) and 16 kDa (β); both purified.

Results are given in words; binding and its absence hold for the method and conditions named. Binding can be weak; no strength is given.

For ZK002 α chain (Deinagkistrodon acutus), the binding result in test [1] and in test [2] was “binds” throughout.

The record behind these values is publication PMC10570812.
